Screening data, single-dose tests

From ChEMBL document CHEMBL3988442, “University of Dundee, Small-Polar-MMV Screening Library” (2021).

T. brucei: 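Whole-parasite assay of Trypanosoma brucei over 72 hours; the read-out is not stated. Compounds at 30 µM. The record gives no direction; compounds that gave an IC50 in retests scored well above the rest, so higher reads as stronger inhibition. Values scatter widely below zero; nearly all retest evidence comes from the higher of the two concentrations used. Size under these conditions: about 64,000 compounds, about 940 of them at 50% or above in at least one test.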
Toxoplasma: 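Assay of Toxoplasma gondii numbers, read through their beta-galactosidase reporter with a colour substrate. Concentration: 10 µM. Higher reads as fewer parasites (inferred from which compounds were picked for retests). About 67,000 compounds were tested under these conditions; 0.38% (about 260) showed 50% or more at least once.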
Leishmania in macrophages: 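Cell assay of Leishmania donovani living inside macrophages; the read-out is not stated. Concentration: 30 µM. Higher reads as stronger inhibition (inferred: compounds with an IC50 in retests scored well above the rest). Of about 69,000 compounds tested this way, about 1,000 (1.5%) reached 50% or more in at least one test.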

Results are given as percent effect. The controls that fix the scale are not given in the record; negative values are as filed. The compounds are a random part of those screened. Two or more numbers in one place are separate tests of the same structure; such repeats can differ widely. A dash means the value is not listed here; it may have been measured.

| Compound | T. brucei | Toxoplasma | Leishmania in macrophages |
|---|---|---|---|
| `[H][C@@]12CCC(=O)N(CCCOC)[C@]1([H])CCN(Cc1ncc[nH]1)C2` | -13.76% | -3.442% | 3.617% |
| `O=C(O)C(F)(F)F.O=C(O)C(F)(F)F.O=C(O)C(F)(F)F.[H][C@@]12C[C@@H](Oc3cccnc3)CN1CCN(c1ncc(F)cn1)C2` | -2.482% | -6.846% | 44.24% |
| `CN1CCN(C[C@@H]2CN(C(=O)CCc3cn[nH]c3)C[C@@H]2CO)CC1` | 10.68% | -5.36% | 25.24% |
| `CCCC(=O)N1CCCN(C(=O)c2oc(C)nc2C)CC1` | -2.605% | 5.106% | -0.05785% |
| `CC(=O)N1CCCC(c2ccc(C(=O)NC3CCCC3)cn2)C1` (centres undefined) | -20.1% | -8.536% | 5.521% |
| `CC(=O)N1CCC(N[C@@H]2CC[C@@H]2NS(=O)(=O)c2cccnc2)CC1` | -22.36% | -9.837% | -12.65% |
| `CCOc1cccc(CNc2cccc(C(=O)OC)c2)c1O` | -20.1% | -38.84% | 25.57% |
| `OC1CCN(c2cnnc3ccccc23)CC1` | -15.33% | -3.427% | 29.85% |
| `Cc1ccc2cc(C3(O)CCN(C(=O)CSC(C)C)CC3)ccc2n1` | -5.929% | -15.21% | 27.25% |
| `O=C(NCC(CO)Cc1ccc(Cl)cc1)c1ccncc1F` (centres undefined) | -11.79% | 7.128% | -12.12% |
| `CSC(C)C(=O)N1CCN(CC(C)(C)O)CC1` (centres undefined) | 1.154% | 2.958% | 37.62% |
| `O=C(NCCCn1cncn1)NCC(c1ccccc1)N1CCCC1` (centres undefined) | -3.208% | 12.7% | 30.05% |
| `Cc1noc(C)c1CN1CCCC2(CCN(C(=O)C3CC3)C2)C1` (centres undefined) | -51.7% | -12.17% | -4.091% |
| `O=c1[nH]c(NCc2cccc(OC(F)F)c2)nc2c1CCNC2` | -41% | -6.409% | -22.85% |
| `OCCOc1cc(F)ccc1NCc1nc(-c2ccoc2)no1` | -18.58% | -0.9346% | -2.119% |
| `CC(C)(C)c1cn2c(n1)C(CNCc1ccccn1)CCC2` (centres undefined) | 52.9% | 84.2% | 33.65% |
| `Cc1cc(Oc2ccccc2F)nc(C2CCCCN2)n1.Cl.Cl` (centres undefined) | -25.86% | 8.944% | 8.747% |
| `O=C(O)CNC(=O)Cc1csc(-c2cccc(Cl)c2)n1` | - | 26.1% | -2.004% |
| `O=C(NCC1CCN(CCc2ccccc2)C1)c1c(F)cccc1F` (centres undefined) | -3.202% | -12.67% | -10.1% |
| `[H][C@]12CCN(C(=O)NC)CC[C@@]1([H])S(=O)(=O)N(Cc1cccc(Cl)c1)C2` | 1.951% | 2.028% | 7.409% |
| `Cn1cnc(-c2nc(C(=O)NCC3CCCO3)c3ccccn23)c1` (centres undefined) | -22.24% | -34.08% | 11.22% |
| `Cc1nnc(SC2CCN(c3sccc3C#N)C2=O)[nH]1` (centres undefined) | -35.33% | 12.91% | -6.835% |
| `COCCn1cc(C(=O)N2CCCC2c2ccccc2C)ccc1=O` (centres undefined) | -19.86% | 17.75% | 23.7% |
| `CN1CCC2(CCCN(S(=O)(=O)c3ccc(-c4cnco4)s3)C2)C1` (centres undefined) | -51.58% | 2.756% | -32.55% |
| `[H][C@]12CC[C@]([H])(CN(C(=O)N(C)C)C1)N(Cc1nnc(-c3ccccc3)o1)C2` | -1.353% | -10.97% | -5.906% |
| `[H][C@@]12CN(Cc3cccc(Cl)c3)C[C@]1([H])C2CN` (some centres undefined) | 33.36% | -12.54% | 88.17% |
| `Cc1nn(C)cc1S(=O)(=O)NCC(c1ccccc1)N1CCCCCC1.Cl` (centres undefined) | -23.24% | 9.389% | 5.222% |
| `[H][C@@]12CCN(S(=O)(=O)c3ccccc3C)C[C@]1(C(=O)NC)CCO2` | -20.51% | -5.97% | 11.68% |
| `O=C1CCCc2occ(C(=O)N3CCCC4(CCNC4)C3)c21` (centres undefined) | -17.89% | 1.582% | -0.3787% |
| `CCN(C)c1ncnc2c1CCN(C(=O)COC)CC2.O=C(O)C(F)(F)F` | -38.45% | 2.351% | 15.25% |
| `Cc1ccc(C2COCCN2C(=O)c2ccsc2)o1` (centres undefined) | 2.184% | 3.488% | 17.03% |
| `N#Cc1ccc2c(c1)CN(C(=O)C1CC=CC1)C2c1cnco1` (centres undefined) | -65.64% | -3.398% | 20.28% |
| `O=C(O)C(F)(F)F.c1cncc(N2CCCC3(CCN(CC4CCCO4)CC3)C2)c1` (centres undefined) | -7.065% | 6.698% | 5.97% |
| `O=C(O)C(F)(F)F.O=C(O)C(F)(F)F.O=C(O)C(F)(F)F.O=C(O)C(F)(F)F.c1ccc(CN2CCC3(CC2)CCN(Cc2cccnc2)C3)nc1` | -862.3% | -7.78% | 33.42% |
| `Cc1noc(C)c1-c1ccc(C2CCCN2C(=O)Cn2ccnc2)nc1` (centres undefined) | -4.122% | -11.65% | 8.081% & 28.01% |
| `O=C(c1cnn2c1OCCC2)N1CCC(Cc2ccccc2)CC1` | -7.963% | 8.782% | -34.88% |
| `[H][C@]12CCCCN1CCC[C@H]2CNC(=O)Cn1ccc2c(C)cccc21` | 0.2332% | 5.391% | 31.88% |
| `CC(=O)NCc1cccc(-n2ccnc2-c2cccc(C(=O)O)c2)c1` | -14.56% | 14.31% | -4.637% |
| `O=S(=O)(NCC1(c2cccs2)CCOCC1)c1cccnc1` | -21.79% | -16.61% | -0.9666% |
| `Cn1nc(CO)c2c1CCN(c1ncnc3c1CCNC3)C2` | -6.047% | 9.291% | 24.15% |
| `CCN(CC)C(=O)CNC(=O)c1c[nH]c2ccc(OC)cc12` | 5.064% | -7.91% | 21.63% |
| `Cc1c(NCCCOc2cccc(C#N)c2)cccc1C(N)=O` | 13.82% | -9.891% | -10.69% |
| `COc1ccc(N2CCC(N3C[C@H](NC(C)=O)[C@@H](C(C)C)C3)CC2)cc1` | 5.946% | 1.973% | 6.674% |
| `CC(=O)c1ccc(C(=O)NCc2ccnc(N(C)C)n2)cc1` | 9.717% | -13.85% | 17.71% |
| `CCc1nc(NCCn2cccn2)c2c(n1)c(C)nn2C` | -27.84% | 14.88% | -55.66% |
| `N#Cc1cc(F)c(NCCCOCC2CCOC2)c(F)c1` (centres undefined) | 2.603% | 4.682% | 29.08% |
| `CCNC(=O)CN1CCN(c2cc(C)nc(-c3ccncc3)n2)CC1` | -11.96% | 23.32% | -3.779% |
| `CC(=O)N1CCN(CCOc2ccc(F)cc2)CC(C(N)=O)C1` (centres undefined) | -11.95% | 3.395% | 2.886% |
| `CCC(C)NS(=O)(=O)Cc1cccc(NC(=O)C2=CCCC2)c1` (centres undefined) | -343.3% | -8.587% | -0.07378% |
| `CCC(CO)NC(=O)Nc1ccc(OCC(F)(F)F)c(C)c1` (centres undefined) | -24.98% | 6.095% | 5.937% |
| `CN1CCN(Cc2ccccc2Cl)CC12CCC(=O)N(CC1CC1)CC2` (centres undefined) | -43.49% | 3.311% | 20.44% |
| `Cc1nccc(C2CCCCN2Cc2cccc(F)c2)n1` (centres undefined) | -5.435% | 14.02% | 8.039% |
| `OCC1CCCN1c1cc(NCc2ccsc2)ncn1` (centres undefined) | - | 25.28% | 14.5% |
| `CC(C)[C@H]1CN(C2Cc3ccccc3C2)C[C@@H]1NS(=O)(=O)N(C)C` | -29.5% | 20.17% | 3.488% |
| `CC1(C(N)=O)CN(S(=O)(=O)c2cccc(F)c2)CCO1` (centres undefined) | -22.34% | 24.41% | -40.3% |
| `Cc1cc(C(=O)NC2CCN(c3ncccc3C#N)CC2)no1` | -34.51% | -2.403% | 8.49% |

For reference, 5 entries once more:

| Compound | T. brucei | Toxoplasma | Leishmania in macrophages |
|---|---|---|---|
| `CCN(C)c1ncnc2c1CCN(C(=O)COC)CC2.O=C(O)C(F)(F)F` | -38.45% | 2.351% | 15.25% |
| `CCOc1cccc(CNc2cccc(C(=O)OC)c2)c1O` | -20.1% | -38.84% | 25.57% |
| `[H][C@]12CCN(C(=O)NC)CC[C@@]1([H])S(=O)(=O)N(Cc1cccc(Cl)c1)C2` | 1.951% | 2.028% | 7.409% |
| `Cc1ccc(C2COCCN2C(=O)c2ccsc2)o1` (centres undefined) | 2.184% | 3.488% | 17.03% |
| `Cn1nc(CO)c2c1CCN(c1ncnc3c1CCNC3)C2` | -6.047% | 9.291% | 24.15% |